In PubChem BioAssay AID2551 (National Center for Advancing Translational Sciences (NCATS), 2010):
Values joined by “and” are separate entries in the source; they are usually repeats but may differ in a detail not shown here. Identical values can stand only once. Out of some 310,000 compounds screened, about 17,000 (5.5%) were called active. The shares of active, inactive and inconclusive entries below differ from those in the screen. Calls follow the shape of the dose curve; as a rule, active = well fitted inhibition curve with a large enough effect; inconclusive = small, poorly fitted or top-dose-only effect, or effect the other way; inactive = no such curve, though single readings can be large or run the other way. A potency beside an inconclusive call is a rough fit, not a confirmed value.

Chains of the proteins cited; added tags and fusions are not shown. Lines headed by an entry give the natural chain unless they say otherwise; changes in a name come on top.
UniProt P51450: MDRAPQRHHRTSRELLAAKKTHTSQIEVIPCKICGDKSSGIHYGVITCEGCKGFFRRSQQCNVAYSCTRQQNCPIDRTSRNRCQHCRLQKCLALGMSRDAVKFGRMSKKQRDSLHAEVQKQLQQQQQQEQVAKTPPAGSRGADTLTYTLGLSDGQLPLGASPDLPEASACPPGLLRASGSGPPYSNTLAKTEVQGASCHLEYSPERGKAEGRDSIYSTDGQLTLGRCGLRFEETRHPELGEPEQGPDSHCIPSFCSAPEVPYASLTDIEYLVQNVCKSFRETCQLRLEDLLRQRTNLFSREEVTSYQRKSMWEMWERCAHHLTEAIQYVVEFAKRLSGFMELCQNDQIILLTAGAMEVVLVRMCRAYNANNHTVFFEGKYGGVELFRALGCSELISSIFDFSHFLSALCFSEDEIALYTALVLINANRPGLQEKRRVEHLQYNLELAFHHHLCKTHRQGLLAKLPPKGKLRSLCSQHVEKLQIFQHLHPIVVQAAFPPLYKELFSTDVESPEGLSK

Target: Nuclear receptor ROR-gamma (Mus musculus) (UniProt P51450)
Assay: qHTS for inhibitors of ROR gamma transcriptional activity; also: nearly all actives have a fitted effect of over 60% in size
Conditions: Drosophila S2 Gal4-RORgamma UAS-luciferase reporter, 20 h; activity change, negative = inhibition: at 53.6 µM (top of the series)
In short: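 Schneider cells (Drosophila), stable Gal4 DBD–ROR gamma + UAS-luc; 1 hr cmpd preincubation; Cu2+ induction 700 uM final; 20 hr ambient; luminescence.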
% is scaled to controls: 0 for no effect and ±100 for the full control effect; potency is read from the fitted curve at half-maximal effect.

Structure (SMILES) | Potency | activity change, negative = inhibition
O=C(Nc1ncn[nH]1)c1ccc(Cl)c(S(=O)(=O)N2CCCCCC2)c1 | inconclusive: 1.41 µM [inhibitor, full curve] | 
Cc1cccc(N2CCN(C(=O)c3cccc(S(=O)(=O)N4CCc5ccccc5C4)c3)CC2C)c1 (stereo not drawn) | inconclusive: 17.8 µM [activator, single point] | 
COC(CNC(=O)c1ccc2c3c(onc13)-c1ccccc1C2=O)OC | inconclusive: 15.8 µM [inhibitor, single point] | 
CNS(=O)(=O)c1ccc(CCC(=O)N2CCN(c3ccccc3OC)CC2)cc1 | inconclusive: 11.2 µM [activator, partial curve] | 
CCCOC(=O)c1ccc(OCC(O)CN2CCN(C(=O)c3ccccc3)CC2)cc1 (stereo not drawn) | inconclusive: 35.5 µM [activator, single point] | 
COc1ccc(OC)c(/C=N/NC(=O)c2[nH]nc3c2CCc2ccccc2-3)c1 | inactive | 
O=C(CSc1ncn[nH]1)N1N=C(c2ccc(Cl)cc2)CC1c1ccco1 (stereo not drawn) | inactive | 
C=CCN(Cc1nc(-c2ccccc2)no1)C(=O)c1ccco1 | inconclusive: 1.78 µM [activator, full curve, poor fit] | 
CC(C)(C)c1cc(C(=O)NNc2cc(C(F)(F)F)ccc2Cl)n(Cc2ccccc2)n1 | inconclusive: 15.8 µM [inhibitor, single point] | 
CC12CN3CC(C)(CN(C1)C3c1ccc(Br)cc1O)C2 (stereo not drawn) | inconclusive: 12.6 µM [inhibitor, single point] | 
NC(=O)SCC(=O)Nc1ccc(Cl)cc1 | inconclusive: 5.01 µM [inhibitor, partial curve, poor fit] | 
O=S(=O)(NCCCCCNS(=O)(=O)c1ccccc1)c1ccccc1 |  | inactive: -28.3% [at 0.365 µM]
CCC(C)NC(=O)C1CN(S(=O)(=O)c2ccccc2)CCN1S(=O)(=O)c1ccccc1 (stereo not drawn) | inconclusive: 3.98 µM [activator, single point] | 
CCNC(=S)NS(=O)(=O)c1ccc(F)cc1 | inactive | 
COc1ccc(C2(O)CCN(C(=O)c3ccc4c(c3)OCO4)CC2)cc1 | inconclusive: 3.16 µM [inhibitor, single point] | 
CCN(CC)CCC(=O)c1ccc(F)cc1 | inconclusive: 35.5 µM [inhibitor, single point] | 
c1nc(N2CCOCC2)c2c3c(sc2n1)CCCC3 |  | inactive: -20.2% [at 0.365 µM]
COc1ccc2nc(NCCNC(=S)NCCCN3CCOCC3)c(C#N)cc2c1 | inconclusive: 12.6 µM [inhibitor, single point] | 
CCC(SC1=NCCS1)C(=O)Nc1ccc(S(N)(=O)=O)cc1 (stereo not drawn) | inactive | 
CCCC(=O)c1cc(-c2nc3ccccc3n2C)n(C)c1 | inconclusive: 0.631 µM [activator, full curve, poor fit] | 
CCc1ccc(/C=C2\SC(N3CCCC3)=NC2=O)cc1 | inconclusive: 1 µM [activator, partial curve, poor fit] | 
CN1CCN(C(=O)c2ccc(COc3ccc(C(C)(C)C)cc3)o2)CC1 | inconclusive: 35.5 µM [activator, single point] | 

Structure (SMILES) | Potency | activity change, negative = inhibition
CC(=O)NC(=S)NNC(=O)CCc1ccccc1 | inactive | 
COc1ccc(-c2nnn(CC(=O)N(Cc3ccccc3Cl)C(C(=O)NCC3CCCO3)c3ccco3)n2)cc1OC (stereo not drawn) | inconclusive: 12.6 µM [activator, single point] | 
COc1ccccc1C(=O)Nc1nnc(-c2ccc(F)cc2)o1 | active: 7.94 µM | 
CC(C)N(C(=O)CSc1nnc(-c2cc3ccccc3cc2O)n1Cc1ccco1)C(C)C |  | inactive: 17.6% [at 0.365 µM]
COCC(C)Nc1ccc(S(=O)(=O)N2CCCC2)cc1[N+](=O)[O-] (stereo not drawn) | inactive | 
Brc1ccccc1OCCCn1cnc2ccccc21 | inactive | 
O=C(Nc1nc2ccccc2n1CCN1CCOCC1)c1cn(-c2ccccc2)nc1-c1ccccc1 | active: 0.631 µM | 
CN(C)CCCN(C(=O)c1cc(-c2cccs2)nc2ccccc12)c1nc2c(F)cccc2s1 | inconclusive: 25.1 µM [inhibitor, single point] | 
O=C(O)CC1S/C(=N/N=C/C=C/c2ccccc2)NC1=O (stereo not drawn) | inactive and inconclusive: 22.4 µM [inhibitor, single point] | 
O=C(O)c1ccc(S(=O)(=O)N(Cc2ccc(F)cc2)C2CCCCC2)cc1 | inconclusive: 0.794 µM [inhibitor, full curve, poor fit] | 
COc1ccc(-c2nc(C#N)c(NCc3ccccc3Cl)o2)cc1OC | inconclusive: 8.91 µM [activator, partial curve] | 
Cc1cccc(NC(=S)NC(=O)c2ccco2)n1 | inconclusive: 35.5 µM [inhibitor, single point] | 
O=C(c1ccc2c(=O)n(CCc3ccccc3)c(=O)[nH]c2c1)N1CCN(c2ccc(F)cc2)CC1 | inconclusive: 6.31 µM [activator, partial curve] | 
Clc1ccc2nc(N3CCNCC3)nc(-c3ccccc3)c2c1 | inconclusive: 17.8 µM [inhibitor, single point] | 
O=C(CSc1ccc([N+](=O)[O-])cn1)Nc1ccc(N2CCOCC2)c(Cl)c1 | inconclusive: 12.6 µM [activator, partial curve] | 
O=C(CSc1oc(-c2cccs2)nc1S(=O)(=O)c1ccccc1)NC1CCCCC1 | inconclusive: 15.8 µM [inhibitor, partial curve] | 
Cc1ccc(NC(=O)C(C)c2cccc(C(=O)c3ccccc3)c2)cc1 (stereo not drawn) | inconclusive: 5.62 µM [activator, single point] | 
CC(C)=CCC/C(C)=C/C=N/NC(=O)c1ccc([N+](=O)[O-])cc1 | active: 3.55 µM | 
CSC1=N/C(=C/c2ccc(-n3cncn3)cc2)C(=O)N1 | inconclusive: 6.31 µM [activator, single point] | 
N#Cc1c2n(c3c(=O)n(Cc4ccccc4Cl)cnc13)CCCCC2 | inconclusive: 0.0708 µM [inhibitor, single point] | 
CC(C)c1cc(CNC(=O)c2cc(COc3cncc(Cl)c3)on2)on1 | inconclusive: 15.8 µM [activator, partial curve] | 
